The values below come from paper doi:10.1101/2024.05.10.593605.

Protein sequences, listed by entry. Tags and fused reporters are not part of them.
UniProt P49657: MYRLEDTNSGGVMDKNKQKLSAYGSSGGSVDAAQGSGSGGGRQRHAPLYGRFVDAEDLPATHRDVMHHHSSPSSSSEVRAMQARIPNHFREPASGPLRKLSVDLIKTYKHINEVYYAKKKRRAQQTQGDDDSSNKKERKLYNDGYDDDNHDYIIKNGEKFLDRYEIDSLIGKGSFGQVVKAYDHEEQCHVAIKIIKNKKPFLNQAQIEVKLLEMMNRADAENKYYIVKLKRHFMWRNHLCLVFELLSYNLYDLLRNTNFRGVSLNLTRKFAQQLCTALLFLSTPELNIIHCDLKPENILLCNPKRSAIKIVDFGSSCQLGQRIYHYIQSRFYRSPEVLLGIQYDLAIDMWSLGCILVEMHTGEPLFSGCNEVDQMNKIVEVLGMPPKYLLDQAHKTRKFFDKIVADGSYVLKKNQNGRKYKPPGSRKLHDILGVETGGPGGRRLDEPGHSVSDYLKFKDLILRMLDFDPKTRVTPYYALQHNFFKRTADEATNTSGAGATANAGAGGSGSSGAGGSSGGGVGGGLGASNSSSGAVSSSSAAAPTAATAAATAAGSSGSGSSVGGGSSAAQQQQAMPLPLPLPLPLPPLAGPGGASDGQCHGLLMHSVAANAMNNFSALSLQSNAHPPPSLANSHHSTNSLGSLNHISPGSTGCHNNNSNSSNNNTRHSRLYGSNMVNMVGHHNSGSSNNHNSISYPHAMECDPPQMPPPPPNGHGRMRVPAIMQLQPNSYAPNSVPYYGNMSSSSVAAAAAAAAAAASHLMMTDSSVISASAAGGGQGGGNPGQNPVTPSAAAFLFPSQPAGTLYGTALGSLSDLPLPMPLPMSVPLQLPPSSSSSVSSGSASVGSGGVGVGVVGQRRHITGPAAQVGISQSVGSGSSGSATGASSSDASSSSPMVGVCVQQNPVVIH

This assay has as its target Minibrain (Mnb), endogenously tagged Mnb-tRFP (Drosophila melanogaster (endogenous in embryos)) (UniProt P49657). In words: affinity purification with mass spectrometry.

No constants are given. Whether binding was seen depends on the method and setting. Binding seen in cells or lysates may run through a third protein. A yes stands for co-enrichment or nearness to the bait. Other partners may have been found.

B1: Ral interacting protein (Rlip), endogenous (protein, UniProt Q9VDG2 1-625)
chain: MDFDSPEEKEFPGLYASEAADAKSRKSKEESDFSEDHDHSKKDLLIGRRKDKKEKGKDRGYAALEGESSPEEELDTKSPSKSKKSKTFKFTSSKSKEKREKSRDKSEKDSKHAEEEPSVSHKVKEKERDKEKDRDEPKKKDKEEKRKEKDKKADKKDKKDKKSKQLSQQQDDVSAAEEVLALGYPVFGVSVSLATERSRCHDGVDIPLVVRDCIDFLQDHLKCEQIYKIEPIKTRLMHFKRLYNNREHDSAVDELNLPTACSLLKLFLRELPEPLLTTDLVARFEEVASHPKVTTQQAELQQLLEQLPKCNRTLLAWVLLHFDAVIQQERHNKLNAQSLAMLLSPTLQMSHRLMVALLCHCNNLFADVQLIKYVPPLTSTSPKLPDTPEDIQTELRKQDSLLSQIHSEMNAGFITKKREEQLWEVQRIITQLKRKLRTFEKKQEKTAEEVDNSSSAPPAVASEDTTDSKPAGTPAVSTNNSISQEEPKTDTLTPKDAPNDFTIDPSTGFILLPKSNPHRENLLRLQIEYDELMEWQNELKARIVAERNEVYRLKQLYEQQSINSQMASLASGSQAPPESDYERIIEHYTRENALLEHKKNMLGMELKEERRACIALQVELRLQQF
For the molecule B1, the binding entry is recorded as “binds”.
